Experimental data: PubChem BioAssay AID720533 (National Center for Advancing Translational Sciences (NCATS), 2013)
Values joined by “and” are separate entries in the source; they are usually repeats but may differ in a detail not shown here. Identical values can stand only once. The campaign covered roughly 18,000 compounds. About 750 (4.2%) were called active. The inconclusive results got no clear call from the source; some entries with a clear call stand among them for comparison. The call rests on the fitted dose curve; tested in HEK293 cells. Potencies beside an inconclusive call are fits to weak or partial responses and may not hold up. Some structures have more than one record in an assay (separate samples or runs), and their calls can disagree.

Assay: qHTS for Inhibitors of binding or entry into cells for Lassa Virus
Conditions: Lassa virus pseudotyped entry inhibition, cell-based qHTS; activity change, negative = inhibition: at 49.2 µM (top of the series) unless noted
On the % scale 0 is the no-effect control and ±100 the full control effect; potency means the concentration at half of the fitted maximal effect.

| SMILES | activity change, negative = inhibition | Potency |
| --- | --- | --- |
| CCN1C[C@]2(C)CCC(OC)[C@@]34C5C[C@@H]6CC[C@@](O)(C5C(=O)O6)[C@@H](C(O)C23)[C@@H]14 (stereo partly drawn) | inactive: 2.6% | – |
| Cc1ccc(-c2ncc(Cl)cc2-c2ccc(S(C)(=O)=O)cc2)cn1 | inactive: -8.61% | – |
| O=c1c(O)c(-c2ccc(O)cc2)oc2ccc(O)cc12 | – | inconclusive: 25.1 µM [inhibitor, partial curve] |
| CC1(C)C(=O)NC2=C1C(=O)C(=O)c1ccccc12 | – | active: 4.47 µM and active: 12.6 µM |
| COc1cc2c(c(OC)c1OC)-c1c(cc(OC)c(OC)c1OC)CC(C)C(C)C2 (stereo not drawn) | – | inconclusive: 25.1 µM [inhibitor, single point] |
| CC(=O)c1ccc(F)c(-c2cc(C)cc3c2OC(CNC(=O)c2cnc4ccccn4c2=O)C3)c1 (stereo not drawn) | – | inconclusive: 22.4 µM [inhibitor, partial curve, poor fit] |
| CCOC(=O)N1CCN(Cc2ccc3c(c2)CN(C(=O)c2cc(-c4ccccc4)no2)CCO3)CC1 | – | inconclusive: 35.5 µM [inhibitor, single point] |
| CCCN(CCc1cccs1)[C@H]1CCc2c(O)cccc2C1 | – | inconclusive: 35.5 µM [inhibitor, partial curve, poor fit] |
| COC(=O)C1(C(=O)OC)C[C@@H]2CON=C2[C@@H]1c1ccccc1 | inactive: -3.32% [at 8.59 µM] | – |
| CN1C2CCC1CC(OC(=O)C1CCC(C(=O)OC3CC4CCC(C3)N4C)(c3ccccc3)c3ccccc31)C2 (stereo not drawn) | – | inconclusive: 35.5 µM [inhibitor, single point] |
| CCCCCC[C@H]1C(=O)O[C@H](C)[C@H](NC(=O)c2cccc(NC=O)c2O)C(=O)O[C@@H](C)[C@H]1OC(=O)CC(C)C | – | inconclusive: 1.78 µM [inhibitor, full curve, poor fit] |
| COCOc1ccc(OC)cc1C(=O)/C=C/c1ccc(OC)c(Br)c1 | – | inconclusive: 17.8 µM [inhibitor, single point] and inconclusive: 22.4 µM [inhibitor, partial curve, poor fit] |
| CO[C@H]1O[C@@H]2O[C@@]3(C)CC[C@H]4[C@H](C)CC[C@@H]([C@H]1C)[C@@]24OO3 | – | inconclusive: 17.8 µM [inhibitor, partial curve, poor fit] |
| Cc1ccc(C(=O)Nc2cccc(-c3nc(CNC(=O)c4cccc(C)c4C)c(C)o3)c2)s1 | – | inconclusive: 28.2 µM [inhibitor, single point] |
| CCc1nccc2c1nc(-c1nonc1N)n2CC | – | inconclusive: 25 µM [inhibitor, single point] |
| C[C@H]1CC[C@@]2(NC1)O[C@@H]1C[C@H]3[C@@H]4CC[C@@H]5C[C@@H](O)CC[C@@]5(C)[C@@H]4CC[C@]3(C)[C@@H]1[C@@H]2C | inactive: -2.45% [at 17.8 µM] | – |
| CN1CCN(C2=Nc3cc(Cl)ccc3Nc3ccccc32)CC1 | – | active: 25.1 µM and active: 8.91 µM |
| Clc1ccc(C[n+]2cc(-c3ccccc3)n3c2CCCCC3)c(Cl)c1 | – | inconclusive: 14.1 µM [inhibitor, partial curve] |
| O[C@H]1CN(CC2CCCCC2)[C@@H](c2ccc(Cl)cc2)C[C@H]1n1cc(-c2ccc(F)cc2)nn1 | inactive: -6.92% | – |

| SMILES | activity change, negative = inhibition | Potency |
| --- | --- | --- |
| CCCCC/C=C\C/C=C\C/C=C\C/C=C\CCCC(=O)NCCc1ccc(O)c(O)c1 | – | inconclusive: 25.1 µM [inhibitor, single point] |
| N=c1ccn2c(n1)O[C@@H]1[C@H](O)[C@H](CO)O[C@@H]12 | – | inconclusive: 4.47 µM [inhibitor, full curve, poor fit] |
| O=C(CN1Cc2ccccc2OC(c2ccccc2F)C1)NC(c1ccccn1)C(F)(F)F (stereo not drawn) | – | inconclusive: 20 µM [inhibitor, single point] |
| Cc1ccc2c(c1)CN(CCNC(=O)c1ccc3nc(C)[nH]c3c1)CC(C)O2 (stereo not drawn) | inactive: -7.02% | – |
| CCCCNC(=O)NS(=O)(=O)c1ccc(C(=O)O)cc1 | inactive: 5.07% | – |
| C[C@H](c1ccccc1)N1C[C@@H](COCc2ccccc2)Oc2cccc(Oc3ccc(F)cc3)c2S1(=O)=O | – | inconclusive: 2.81 µM [inhibitor, full curve, poor fit] |
| C=C1C(=O)O[C@@H]2[C@H]3O[C@]3(C)CC/C=C(\C)CC[C@@H]12 | – | active: 4.47 µM |
| O=[N+]([O-])c1ccc(CN2[C@H](COCc3ccccc3)[C@@H](N3CCCC3)CS2(=O)=O)cc1 | inactive: 15% | – |
| COc1ccc([C@H]2CN(c3ccc(OC)cc3)C(=O)[C@H]2CC(=O)Nc2ccc(Br)cc2)cc1 | – | inconclusive: 14.1 µM [inhibitor, partial curve, poor fit] |
| C=CCCCCCCCCCCCC(O)CC(O)COC(C)=O (stereo not drawn) | inactive: 10.8% | – |
| CN(Cc1cccc2ncccc12)C(=O)c1cnn(-c2nccc(-c3ccccc3F)n2)c1C1CC1 | – | active: 12.6 µM |
| C[C@H]1CC[C@]2(NC1)O[C@H]1C[C@H]3[C@@H]4CC[C@H]5C[C@@H](O[C@@H]6O[C@H](CO)[C@H](O[C@@H]7O[C@H](CO)[C@@H](O)[C@H](O[C@@H]8OC[C@@H](O)[C@H](O)[C@H]8O)[C@H]7O[C@@H]7O[C@H](CO)[C@@H](O)[C@H](O)[C@H]7O)[C@H](O)[C@H]6O)CC[C@]5(C)[C@H]4CC[C@]3(C)[C@H]1[C@@H]2C | – | active: 14.1 µM |
| Cc1c(C(=O)c2cccc3ccccc23)c2cccc3c2n1[C@@H](CN1CCOCC1)CO3 | – | inconclusive: 15.8 µM [inhibitor, single point] |
| c1nc(NC2CCNCC2)c2cc(-c3ccc4c(c3)OCO4)ccc2n1 | inactive: -4.72% | – |
| CN1CC(CNC(=O)OCc2ccccc2)CC2c3cccc4c3c(cn4C)CC21 (stereo not drawn) | – | inconclusive: 22.4 µM [inhibitor, single point] |
| O=C1C2CCN(CC2)C1(CO)CO | – | inconclusive: 35.5 µM [inhibitor, single point] |
| CCCCCCN1C[C@H](O)[C@@H](n2cc(-c3ccc(F)cc3)nn2)C[C@H]1c1ccc(C)cc1 | – | inconclusive: 17.7 µM [inhibitor, partial curve, poor fit] |
| Cn1c(O)c(N=NC(N)=S)c2ccccc21 | – | inconclusive: 35.5 µM [inhibitor, single point] |
| C=CCOC(=O)C(C(C)=O)[C@@H](NC(=O)OC)c1cccc(C)c1 (stereo partly drawn) | inactive: -17.5% [at 8.59 µM] | – |
| COCc1c(C(=O)N2CCN(c3ccccc3O)CC2)cnn1-c1nccc(-c2cccs2)n1 | – | inconclusive: 22.4 µM [inhibitor, single point] |

| SMILES | activity change, negative = inhibition | Potency |
| --- | --- | --- |
| COC(=O)CC1C2(C)CC34OC5(C)O[C@@]6(C7/C(=C(/O)C(C)C)C(=O)OC(c8ccoc8)[C@]7(C)C(OC(C)=O)C(OC(C)=O)[C@]6(O5)[C@@]13C)C(OC(C)=O)[C@]4(O)C2OC(=O)C(C)C (stereo partly drawn) | inactive: -2.36% | – |
| N#C/C(=C\c1ccc(O)c(O)c1)C(N)=S | – | inactive |
| CCOC(=O)C1=C(C(=O)OCC)C(C(=O)OCC)N(S(=O)(=O)C(F)(F)F)c2ccccc21 (stereo not drawn) | inactive: -6.28% | – |
| O=C(c1ccccc1)[C@@H]1O[C@H]1c1ccc(-c2ccccc2)cc1 | – | inconclusive: 35.5 µM [inhibitor, single point] |
| O=S1(=O)c2cccc(Cl)c2OC[C@H](c2ccccc2)N1Cc1ccc(Cl)cc1 | – | inconclusive: 12.5 µM [inhibitor, partial curve, poor fit] |
| CN(C)CC(C)(O)c1ccc2c(c1)CN(Cc1cn(C)c3ccccc13)CCO2 (stereo not drawn) | – | inconclusive: 14.1 µM [inhibitor, partial curve, poor fit] |
| c1ccc2sc(C3(N4CCCCC4)CCCCC3)cc2c1 | – | inconclusive: 28.2 µM [inhibitor, single point] |
| COC(=O)CC1C(C)(C)C(OC(C)=O)C2CC3C4CC(=O)OC(c5ccoc5)[C@]4(C)CCC3[C@@]1(C)C2=O (stereo partly drawn) | inactive: -7.3% | – |
| Cc1cccc(COC[C@H](Cc2ccccc2)N2CCN(C(=O)c3cccc(C)c3)CCC2=O)c1 | – | inconclusive: 5.62 µM [inhibitor, partial curve] |
| COc1cc(/C=C\C(=O)N2CCC=CC2=O)cc(OC)c1OC | – | inconclusive: 14.1 µM [inhibitor, single point] |
| N#Cc1cccc(Nc2ncc(-c3ccccc3)o2)c1 | inactive: 2.38% | – |
| CC(O)C(C)OC(=O)[C@@H]1C[C@@H]2c3cccc4c3c(cn4C(C)C)C[C@H]2N(C)C1 (stereo partly drawn) | – | inconclusive: 35.5 µM [inhibitor, single point] |
| N#CC(c1ccc(Cl)cc1)c1c(Cl)cc(-n2ncc(=O)[nH]c2=O)cc1Cl (stereo not drawn) | – | inconclusive: 11.2 µM [inhibitor, full curve, poor fit] |
| C(=C\c1ccccc1)/CN1CCN(CCOC(c2ccccc2)c2ccccc2)CC1 | – | active: 31.6 µM |
| O=S(=O)(c1cccc2c(I)cccc12)N1CCCNCC1 | – | inactive and inconclusive: 35.5 µM [inhibitor, single point] |
| COc1ccc(CN2CCOc3ccc(CN4CCN(CCO)CC4)cc3C2)c2ccccc12 | – | inconclusive: 35.5 µM [inhibitor, partial curve, poor fit] |
| CN1CCCC(CC2c3ccccc3Sc3ccccc32)C1 (stereo not drawn) | – | inconclusive: 14.1 µM [inhibitor, partial curve] |
| CN1CCC(=C2c3ccccc3CC(=O)c3sccc32)CC1 | – | inconclusive: 35.5 µM [inhibitor, single point] |
